Reference: PubChem BioAssay AID504808 (Drosophila RNAi Screening Center, 2011)
In all, the deposit lists about 21,000 reagents; below is a random part of those with a known target gene and a result. In the full data, 18 (0.084%) are marked active. 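Raw counts without plate normalisation, one of two replicates; the ratio scores behind the calls were not deposited.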 A number with no mark means an inactive call. A plus sign joins genes that one reagent is predicted to hit. Not given: the amount of reagent, the time to read-out.

Screen: 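Fly genes required to hold E2F transcription in check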 (primary screen)
Cells: Drosophila S2 cells
Knock-down reagent: long dsRNA against Drosophila genes
Read-out: 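Dual luciferase plate measurements; E2F-specific signal taken as firefly over Renilla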
Reading the numbers: E2F firefly: higher = more E2F reporter activity; Renilla normaliser: higher = more normaliser reporter signal
Rule for the call: 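Called active if the normalised E2F reporter went up by over 50%; the cutoff is arbitrary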

| gene | amplicon | E2F firefly, rep 1 | Renilla normaliser, rep 1 |
| --- | --- | --- | --- |
| hrg | DRSC07502 | 1.32e5 | 5129 |
| CG10097 + CG10096 | DRSC14189 | 71148 | 3883 |
| CG10097 + CG10096 | DRSC14190 | 1.39e5 | 6261 |
| Gapdh1 | DRSC07433 | 1.48e5 | 4829 |
| l(3)76BDm | DRSC11047 | 75362 | 3257 |
| PK1-R | DRSC16577 | 1.13e5 | 6267 |
| CG18262 | DRSC18149 | 1.43e5 | 5307 |
| Vtld + CG42529 | DRSC10102 | 1.38e5 | 8395 |
| CG9981 | DRSC20225 | 1.56e5 | 7756 |
| side-II | DRSC01427 | 1.40e5 | 7638 |
| side-II | DRSC01429 | 1.33e5 | 6727 |
| side-II | DRSC01913 | 1.07e5 | 4083 |
| side-II | DRSC01932 | 94273 | 4055 |
| side-II | DRSC02480 | 96757 | 4117 |
| CG46339 | DRSC14136 | 1726 | 900 |
| Cpr76Bb | DRSC11061 | 1.50e5 | 8440 |
| nub | DRSC01260 | 1.34e5 | 5546 |
| nub | DRSC02498 | 93713 | 3737 |
| nub | DRSC02499 | 1.05e5 | 4670 |
| nub | DRSC03583 | 87819 | 4943 |
| RtGEF | DRSC03604 | 1.01e5 | 5179 |

Ordered by “Renilla normaliser, rep 1” (highest first): 3 of the entries above.
| gene | amplicon | E2F firefly, rep 1 | Renilla normaliser, rep 1 |
| --- | --- | --- | --- |
| Cpr76Bb | DRSC11061 | 1.50e5 | 8440 |
| nub | DRSC01260 | 1.34e5 | 5546 |
| nub | DRSC02498 | 93713 | 3737 |

The list goes on.
| gene | amplicon | E2F firefly, rep 1 | Renilla normaliser, rep 1 |
| --- | --- | --- | --- |
| CG17167 | DRSC20902 | 1.34e5 | 4028 |
| CG17167 | DRSC20903 | 1.27e5 | 4239 |
| AhcyL1 | DRSC08647 | 1.13e5 | 4389 |
| mthl12 | DRSC12964 | 97899 | 2568 |
| CG33221 (retired record) | DRSC21201 | 71446 | 3849 |
| CG12502 | DRSC08281 | 90264 | 3759 |
| CG1360 | DRSC06406 | 1.31e5 | 4496 |
| CG3335 | DRSC10358 | 76311 | 5758 |
| Anp | DRSC14112 | 1.23e5 | 6363 |
| ninaE | DRSC17014 | 1.47e5 | 7208 |
| CG4575 (retired record) | DRSC18372 | 1.05e5 | 5650 |
| CG9328 | DRSC03203 | 93443 | 3352 |
| snoRNA:Me28S-A982b + Uhg4 + snoRNA:Me28S-G3255a + 1 more | DRSC05143 | 1.31e5 | 5874 |
